Measured values taken from PubChem BioAssay AID328 (DTP/NCI, 2004).
The list is a part of this screen's results and no random one: it is rich in T/C values a quarter to a half above the control, in often repeated tests (any T/C) and in doses without a T/C. Other doses and runs of a compound stand elsewhere. T/C gives the treated animals as a percentage of the vehicle group. Some doses have a count of surviving animals in place of a T/C: the source files T/C as zero there, which appears to mark a toxic dose or a test without result, not a measured value. Some doses without a T/C left all or most animals alive at the check, yet need not have been tolerated: the source hardly ever lists a survival T/C far under the control, and the zero likely stands for such cases as well. Counts of survivors are from the toxicity check (mostly the fifth day) where no day follows; animals may have died later. Schedule codes are those of the source, read here as Q, the interval in days (D) or hours (H), X, the number of doses. Some entries hold several experiments; the results are listed from low to high. Where survival is the endpoint, this PubChem deposit counts one and a half times the control or more as active, and values a quarter to a half above the control carry no call in these data; other NCI protocols may use other cut-offs. Some T/C values carry the count of animals alive at the toxicity check (mostly the fifth day); without a count, all were alive then.

Test system: BDF1 mice, P388 leukemia ip, median survival T/C
Experiment: NCI In Vivo Anticancer Drug Screen. Data for tumor model P388 Leukemia (intraperitoneal) in B6D2F1 (BDF1) mice
Settings: T/C endpoint: median survival time, higher T/C = longer survival
In short: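 Each value expresses how treatment altered survival: treated-mouse outcome over vehicle-mouse outcome, both groups bearing the transplanted tumour.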

[1] = dose: 25.0 mg/kg/injection, schedule: Q01DX009 (ip), vehicle: saline with Tween-80
[2] = dose: 100.0 mg/kg/injection, schedule: Q01DX009 (ip), vehicle: saline with Tween-80
[3] = dose: 400.0 mg/kg/injection, schedule: Q04DX003 (ip), vehicle: saline with Tween-80
[4] = dose: 400.0 mg/kg/injection, schedule: Q01DX009 (ip), vehicle: saline with Tween-80
[5] = dose: 100.0 mg/kg/injection, schedule: Q04DX003 (ip), vehicle: saline with Tween-80
[6] = dose: 200.0 mg/kg/injection, schedule: Q01DX009 (ip), vehicle: Klucel (hydroxypropylcellulose) (HPC)
[7] = dose: 100.0 mg/kg/injection, schedule: Q01DX009 (ip), vehicle: Klucel (hydroxypropylcellulose) (HPC)
[8] = dose: 150.0 mg/kg/injection, schedule: Q04DX003 (ip), vehicle: saline with Tween-80

SMILES: CCCCOP(=S)(N1CC1)N1CC1
- T/C (dose: 4.4 mg/kg/injection, schedule: Q01DX009 (ip), vehicle: saline with Tween-80): 133 % of control
- T/C (dose: 6.0 mg/kg/injection, schedule: Q04DX003 (ip), vehicle: saline with Tween-80): 128 % of control
- T/C (dose: 9.0 mg/kg/injection, schedule: Q04DX003 (ip), vehicle: saline with Tween-80): 128 % of control
- T/C (dose: 16.5 mg/kg/injection, schedule: Q01DX009 (ip), vehicle: saline with Tween-80): 148 % of control
- T/C [1]: 130 % of control
- survivor count [2]: 4 of 6
- survivor count (dose: 200.0 mg/kg/injection, schedule: Q01DX009 (ip), vehicle: saline with Tween-80): 0 of 6
- survivor count [3]: 4 of 6

SMILES: O=C(Nc1ccc(S(=O)(=O)O)cc1)c1ccc([N+](=O)[O-])cc1
- T/C (dose: 400.0 mg/kg/injection, schedule: Q04DX003 (ip), vehicle: saline): 90, 120, 127, 165 % of control [5 of 6 alive]

SMILES: NC(=O)OCCI
- T/C (dose: 200.0 mg/kg/injection, schedule: Q04DX003 (ip), vehicle: Klucel (hydroxypropylcellulose) (HPC)): 127 % of control
- survivor count (dose: 300.0 mg/kg/injection, schedule: Q04DX003 (ip), vehicle: Klucel (hydroxypropylcellulose) (HPC)): 4 of 6

SMILES: Nc1nc(=O)n(CC(=O)c2cccs2)cc1F
- survivor count [4]: 0 of 6
- survivor count [3]: 0 of 6

SMILES: CCC1CN2CCc3cc(O)c(O)cc3C2CC1CC1NCCc2c1[nH]c1ccc(O)cc21 (stereo unspecified)
- T/C (dose: 0.25 mg/kg/injection, schedule: Q01DX009 (ip), vehicle: Klucel (hydroxypropylcellulose) (HPC)): 139 % of control
- T/C (dose: 0.5 mg/kg/injection, schedule: Q01DX009 (ip), vehicle: Klucel (hydroxypropylcellulose) (HPC)): 139 % of control

SMILES: CCOC(=O)CCSc1ccccc1
- survivor count [5]: 3 of 6

SMILES: O=C(O)C1CC2C=CC1C2 (stereo unspecified)
- survivor count [4]: 1 of 6

SMILES: O=C1OP2(c3ccccc3)(OC(=O)c3ccccc32)c2ccccc21
- T/C [1]: 140 % of control

SMILES: CSc1cccc(NC(C)=O)c1
- survivor count [6]: 5 of 6

SMILES: CC12CCC3C(CCC4=CC(O)CCC43C=O)C1(O)CCC2c1ccc(=O)oc1 (stereo unspecified)
- survivor count (dose: 3.0 mg/kg/injection, schedule: Q01DX009 (ip), vehicle: saline + alcohol): 4 of 4
- survivor count (dose: 4.6 mg/kg/injection, schedule: Q01DX010 (ip), vehicle: carboxymethylcellulose (CMC)): 6 of 6
- survivor count (dose: 8.0 mg/kg/injection, schedule: Q01DX010 (ip), vehicle: carboxymethylcellulose (CMC)): 6 of 6
- survivor count (dose: 12.0 mg/kg/injection, schedule: Q01DX010 (ip), vehicle: carboxymethylcellulose (CMC)): 5 of 6
- survivor count (dose: 18.0 mg/kg/injection, schedule: Q01DX010 (ip), vehicle: carboxymethylcellulose (CMC)): 0 of 6
- survivor count (dose: 27.0 mg/kg/injection, schedule: Q01DX010 (ip), vehicle: carboxymethylcellulose (CMC)): 0 of 6

SMILES: CCOC(=O)/C=C/c1c[nH]c(=O)[nH]c1=O
- survivor count (dose: 400.0 mg/kg/injection, schedule: Q01DX009 (ip), vehicle: saline): 2 of 6

SMILES: [N-]=[N+]=CC(=O)NCC(=O)NN
- T/C (dose: 100.0 mg/kg/injection, schedule: Q01DX010 (ip), vehicle: saline): 127 % of control
- T/C (dose: 100.0 mg/kg/injection, schedule: Q01DX010 (ip), vehicle: water): 130 % of control
- T/C (dose: 200.0 mg/kg/injection, schedule: Q01DX010 (ip), vehicle: saline): 140 % of control
- survivor count (dose: 800.0 mg/kg/injection, schedule: Q01DX010 (ip), vehicle: saline): 6 of 6

SMILES: CCC(=O)NC1=C(N2CC2)C(=O)C(NC(=O)CC)=C(N2CC2)C1=O
- T/C (dose: 0.5 mg/kg/injection, schedule: Q01DX009 (ip), vehicle: saline): 138 and 140 % of control

SMILES: NNc1cccc(C(F)(F)F)c1
- survivor count (dose: 12.5 mg/kg/injection, schedule: Q01DX009 (ip), vehicle: saline with Tween-80): 6 of 6
- survivor count [1]: 6 of 6
- survivor count (dose: 50.0 mg/kg/injection, schedule: Q01DX009 (ip), vehicle: saline with Tween-80): 6 of 6

SMILES: O=C1c2ccccc2C(=O)c2c(NCCN3CCCCC3)ccc(NCCN3CCCCC3)c21
- T/C (dose: 100.0 mg/kg/injection, schedule: Q01DX009 (ip), vehicle: other): 135 % of control
- survivor count (dose: 200.0 mg/kg/injection, schedule: Q01DX009 (ip), vehicle: other): 1 of 6
- survivor count (dose: 400.0 mg/kg/injection, schedule: Q01DX009 (ip), vehicle: other): 0 of 6

SMILES: O=C(O)c1ccc(N2C(=O)C=CC2=O)cc1 (tested in a mixture with another compound)
- survivor count (dose: 6.25 mg/kg/injection, schedule: Q01DX009 (ip), vehicle: Klucel (hydroxypropylcellulose) (HPC)): 6 of 6
- survivor count (dose: 12.5 mg/kg/injection, schedule: Q01DX009 (ip), vehicle: Klucel (hydroxypropylcellulose) (HPC)): 0 of 6

SMILES: O=C1Cc2ccccc21
- survivor count (dose: 200.0 mg/kg/injection, schedule: Q04DX003 (ip), vehicle: saline with Tween-80): 0 of 6
- survivor count [4]: 6 of 6
- T/C [3]: 108, 110, 113, 145 % of control

SMILES: CC(C)(C)C(=O)CC(O)(C(F)(F)Cl)C(F)(F)Cl
- survivor count [4]: 6 of 6

SMILES: CNC(=S)N1N=C(C)CC1=O
- survivor count (dose: 150.0 mg/kg/injection, schedule: Q01DX009 (ip), vehicle: saline with Tween-80): 2 of 6

SMILES: Cc1cc(=O)n(Cc2ccccc2)c(O)c1C
- survivor count (dose: 400.0 mg/kg/injection, schedule: Q04DX003 (ip), vehicle: Klucel (hydroxypropylcellulose) (HPC)): 5 of 6

SMILES: Fc1ccc(CSc2ncnc3c2ncn3C2CCCCO2)cc1 (stereo unspecified)
- survivor count [7]: 6 of 6
- survivor count (dose: 400.0 mg/kg/injection, schedule: Q01DX009 (ip), vehicle: Klucel (hydroxypropylcellulose) (HPC)): 5 of 6

SMILES: CC1CN=C(c2ccc(NC(=O)Nc3ccc(C(=O)Nc4ccc(C5=NCC(C)N5)cc4)cc3)cc2)N1 (stereo unspecified)
- survivor count [8]: 1 of 6

SMILES: COc1cc2cc(c1Cl)NC(=O)CC(OC(=O)C(C)N(C)C(=O)C1(C)CC1C)C1(C)OC1C(C)C1CC(O)(NC(=O)O1)C(OC)C=C/C=C(\C)C2 (stereo unspecified)
- T/C (dose: 0.1 micrograms/kg/injection, schedule: Q01DX009 (ip), vehicle: saline + alcohol): 126 % of control
- T/C (dose: 0.2 micrograms/kg/injection, schedule: Q01DX009 (ip), vehicle: saline + alcohol): 126 % of control
- T/C (dose: 0.4 micrograms/kg/injection, schedule: Q01DX009 (ip), vehicle: saline + alcohol): 145 % of control
- T/C (dose: 0.8 micrograms/kg/injection, schedule: Q01DX009 (ip), vehicle: saline + alcohol): 149 % of control
- survivor count (dose: 50.0 micrograms/kg/injection, schedule: Q01DX009 (ip), vehicle: saline + alcohol): 4 of 6 and 3 of 4

SMILES: CC(C)(C)C#C[P+](C#CC(C)(C)C)(Cc1ccccc1)c1ccccc1
- survivor count (dose: 25.0 mg/kg/injection, schedule: Q01DX009 (ip), vehicle: saline): 6 of 6
- survivor count (dose: 50.0 mg/kg/injection, schedule: Q01DX009 (ip), vehicle: saline): 5 of 6

SMILES: O=C(Nc1ccc(C2=NCCN2)cc1)c1cccc(C(=O)Nc2ccc(C3=NCCN3)cc2)c1
- T/C (dose: 8.0 mg/kg/injection, schedule: Q01DX010 (ip), vehicle: saline): 145 % of control

SMILES: COC(=O)/C(=C1/OC(=O)C(c2ccccc2)=C1O)c1ccccc1
- T/C [1]: 127 % of control
- survivor count [2]: 0 of 3

SMILES: CC[C@H](CC[C@@H](C)[C@H]1CC[C@H]2[C@@H]3CC=C4C[C@@H](OC(=O)CN5CCNCC5)CC[C@]4(C)[C@H]3CC[C@]12C)C(C)C
- survivor count [6]: 2 of 6

SMILES: CCCOC(=O)/C=C(\Br)C(=O)OCCC
- survivor count [5]: 3 of 6

SMILES: CC(=O)[C@H]1[C@H](C)C[C@H]2[C@@H]3CCC4=CC(=O)CC[C@]4(C)[C@@]3(F)[C@@H](O)C[C@@]21C
- T/C (dose: 132.0 mg/kg/injection, schedule: Q04DX003 (ip), vehicle: saline): 131 % of control
- T/C (dose: 200.0 mg/kg/injection, schedule: Q04DX003 (ip), vehicle: alcohol): 125 % of control

SMILES: O=C(O)/C=C\C(=O)Nc1ccccc1
- survivor count [7]: 6 of 6

SMILES: C[n+]1ccc(NC(=O)c2ccc(NC(=O)c3cccc(C(=O)Nc4ccc(C(=O)Nc5cc[n+](C)cc5)cc4)c3)cc2)cc1
- survivor count [8]: 6 of 6

SMILES: CCOC(=O)CCCN(c1[nH]c(C)c(C)c1C#N)S(=O)(=O)c1ccc(C)cc1
- survivor count (dose: 50.0 mg/kg/injection, schedule: Q04DX003 (ip), vehicle: saline with Tween-80): 6 of 6
- survivor count [5]: 6 of 6
